1 compound from ChEMBL document CHEMBL1121430, “Bicyclic and tricyclic ergoline partial structures. Rigid 3-(2-aminoethyl)pyrroles and 3- and 4-(2-aminoethyl)pyrazoles as dopamine agonists” (1980) can be followed below.

Assay [1] deals with Rattus norvegicus. As to the kind of experiment: Tested for lowering of serum prolactin level in reserpinized rat after i.p. administration at dosage of 0.05 mg/kg. Type of assay: functional. As to conditions: route intraperitoneal.
Assay [2] relates to Rattus norvegicus. As to the kind of experiment: Tested for lowering of serum prolactin level in reserpinized rat after i.p. administration at dosage of 0.5 mg/kg. It counts as functional. The note with it: route intraperitoneal.

In assay [1], `CCCN1CCC[C@@H]2Cc3n[nH]cc3CC21.Cl.Cl` (some centres not stated) returned an Inhibition of 12.3 ng/mL. Besides, in assay [2], the Serum level is 7.7 ng/mL.
